Laboratory results: the supplement of paper PMC7661543
± gives the standard deviation of the averaged measurements. Differences between knockout arms are mostly noise.

Test system: SKBR3
Assay: relative cell number vs DMSO control (72 h) (% of DMSO); higher = less growth inhibition (more cells)
Procedure: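 QMAP-Seq: a pool of 5 breast cancer cell lines (ZR-75-1, SKBR3, HCC-38, MDA-MB-231, BT-20), each carrying 12 doxycycline-inducible Cas9 sgRNA perturbations (11 knockouts plus non-targeting sgNT), was treated with compounds for 72 h at four 10-fold doses (10 nM-10 uM or 1 nM-1 uM range). Barcodes were amplified and sequenced, and cell number was interpolated from 293T spike-in standard curves. The result is expressed as % of the median of DMSO wells. Two biological replicates.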

COc1cc(CCc2cc(NC(=O)c3ccc(N4CC(C)NC(C)C4)cc3)n[nH]2)cc(OC)c1 (configuration not stated) [AZD4547]
Conditions	relative cell number
sgRNA knockout: sgATF3, 10 nM	110 ± 26
sgRNA knockout: sgATF3, 100 nM	86.1 ± 32
sgRNA knockout: sgATF3, 1000 nM	103.7 ± 0.51
sgRNA knockout: sgATF3, 10000 nM	39.4 ± 7.8
sgRNA knockout: sgATF4, 10 nM	85.1 ± 8.9
sgRNA knockout: sgATF4, 100 nM	100 ± 4
sgRNA knockout: sgATF4, 1000 nM	82.5 ± 11
sgRNA knockout: sgATF4, 10000 nM	47.7 ± 5.9
sgRNA knockout: sgATF6, 10 nM	73.4 ± 18
sgRNA knockout: sgATF6, 100 nM	85.4 ± 5.4
sgRNA knockout: sgATF6, 1000 nM	90.5 ± 7.4
sgRNA knockout: sgATF6, 10000 nM	42.9 ± 13
sgRNA knockout: sgATG7, 10 nM	85.9 ± 19
sgRNA knockout: sgATG7, 100 nM	97.2 ± 7.7
sgRNA knockout: sgATG7, 1000 nM	98 ± 20
sgRNA knockout: sgATG7, 10000 nM	46.4 ± 7
sgRNA knockout: sgERN1, 10 nM	84.4 ± 7.1
sgRNA knockout: sgERN1, 100 nM	79.1 ± 16
sgRNA knockout: sgERN1, 1000 nM	105 ± 4.2
sgRNA knockout: sgERN1, 10000 nM	47.4 ± 2.8
sgRNA knockout: sgHSF1, 10 nM	68.8 ± 7.3
sgRNA knockout: sgHSF1, 100 nM	95.1 ± 25
sgRNA knockout: sgHSF1, 1000 nM	83.4 ± 2.2
sgRNA knockout: sgHSF1, 10000 nM	42.2 ± 4.5
sgRNA knockout: sgHSF2, 10 nM	89.8 ± 20
sgRNA knockout: sgHSF2, 100 nM	81.5 ± 27
sgRNA knockout: sgHSF2, 1000 nM	89.8 ± 8.5
sgRNA knockout: sgHSF2, 10000 nM	60.91 ± 0.26
sgRNA knockout: sgKEAP1, 10 nM	73.7 ± 15
sgRNA knockout: sgKEAP1, 100 nM	84.3 ± 28
sgRNA knockout: sgKEAP1, 1000 nM	87.5 ± 7.6
sgRNA knockout: sgKEAP1, 10000 nM	50.2 ± 8.1
sgRNA knockout: sgNFE2L2, 10 nM	87.3 ± 19
sgRNA knockout: sgNFE2L2, 100 nM	80 ± 4.4
sgRNA knockout: sgNFE2L2, 1000 nM	99.5 ± 1.7
sgRNA knockout: sgNFE2L2, 10000 nM	42.6 ± 1.1
sgRNA knockout: sgSLC35F2, 10 nM	87.8 ± 3.7
sgRNA knockout: sgSLC35F2, 100 nM	74.1 ± 27
sgRNA knockout: sgSLC35F2, 1000 nM	105 ± 12
sgRNA knockout: sgSLC35F2, 10000 nM	48.9 ± 9.6
sgRNA knockout: sgXBP1, 10 nM	85.1 ± 1.8
sgRNA knockout: sgXBP1, 100 nM	70.4 ± 24
sgRNA knockout: sgXBP1, 1000 nM	95.8 ± 5.4
sgRNA knockout: sgXBP1, 10000 nM	51.4 ± 2.5

COc1nc(N)nc2c1ncn2[C@@H]1O[C@H](CO)[C@@H](O)[C@@H]1O [Nelarabine]
Conditions	relative cell number
sgRNA knockout: sgATF3, 10 nM	117 ± 22
sgRNA knockout: sgATF3, 100 nM	97.3 ± 5.2
sgRNA knockout: sgATF3, 1000 nM	109 ± 15
sgRNA knockout: sgATF3, 10000 nM	102 ± 14
sgRNA knockout: sgATF4, 10 nM	106 ± 17
sgRNA knockout: sgATF4, 100 nM	98.7 ± 6.8
sgRNA knockout: sgATF4, 1000 nM	91.8 ± 14
sgRNA knockout: sgATF4, 10000 nM	93.7 ± 4.1
sgRNA knockout: sgATF6, 10 nM	104 ± 25
sgRNA knockout: sgATF6, 100 nM	81 ± 14
sgRNA knockout: sgATF6, 1000 nM	91.4 ± 12
sgRNA knockout: sgATF6, 10000 nM	95.7 ± 7.3
sgRNA knockout: sgATG7, 10 nM	93.8 ± 22
sgRNA knockout: sgATG7, 100 nM	90.2 ± 35
sgRNA knockout: sgATG7, 1000 nM	102 ± 8.9
sgRNA knockout: sgATG7, 10000 nM	93 ± 24
sgRNA knockout: sgERN1, 10 nM	131 ± 25
sgRNA knockout: sgERN1, 100 nM	97.5 ± 13
sgRNA knockout: sgERN1, 1000 nM	95.2 ± 27
sgRNA knockout: sgERN1, 10000 nM	92.3 ± 20
sgRNA knockout: sgHSF1, 10 nM	99.7 ± 15
sgRNA knockout: sgHSF1, 100 nM	92.33 ± 0.82
sgRNA knockout: sgHSF1, 1000 nM	97.4 ± 36
sgRNA knockout: sgHSF1, 10000 nM	117 ± 15
sgRNA knockout: sgHSF2, 10 nM	112.6 ± 0.75
sgRNA knockout: sgHSF2, 100 nM	100 ± 18
sgRNA knockout: sgHSF2, 1000 nM	86.3 ± 30
sgRNA knockout: sgHSF2, 10000 nM	81.2 ± 15
sgRNA knockout: sgKEAP1, 10 nM	114 ± 2.3
sgRNA knockout: sgKEAP1, 100 nM	79.1 ± 10
sgRNA knockout: sgKEAP1, 1000 nM	88.7 ± 0.98
sgRNA knockout: sgKEAP1, 10000 nM	122 ± 12
sgRNA knockout: sgNFE2L2, 10 nM	99.7 ± 31
sgRNA knockout: sgNFE2L2, 100 nM	96.2 ± 20
sgRNA knockout: sgNFE2L2, 1000 nM	94 ± 21
sgRNA knockout: sgNFE2L2, 10000 nM	93.8 ± 3.3
sgRNA knockout: sgSLC35F2, 10 nM	94.5 ± 15
sgRNA knockout: sgSLC35F2, 100 nM	97.6 ± 11
sgRNA knockout: sgSLC35F2, 1000 nM	104 ± 11
sgRNA knockout: sgSLC35F2, 10000 nM	109 ± 7.3
sgRNA knockout: sgXBP1, 10 nM	113 ± 10
sgRNA knockout: sgXBP1, 100 nM	98.2 ± 14
sgRNA knockout: sgXBP1, 1000 nM	87.7 ± 7.8
sgRNA knockout: sgXBP1, 10000 nM	106 ± 13

COc1cc2nc(N3CCCN(C)CC3)nc(NC3CCN(Cc4ccccc4)CC3)c2cc1OC
Conditions	relative cell number
sgRNA knockout: sgATF3, 10 nM	97.1 ± 5.5
sgRNA knockout: sgATF3, 100 nM	124 ± 16
sgRNA knockout: sgATF3, 1000 nM	82 ± 1.4
sgRNA knockout: sgATF3, 10000 nM	2.96 ± 2.1
sgRNA knockout: sgATF4, 10 nM	102 ± 11
sgRNA knockout: sgATF4, 100 nM	98.2 ± 39
sgRNA knockout: sgATF4, 1000 nM	84.4 ± 0.94
sgRNA knockout: sgATF4, 10000 nM	4.12 ± 2.7
sgRNA knockout: sgATF6, 10 nM	85.7 ± 9.4
sgRNA knockout: sgATF6, 100 nM	89.9 ± 14
sgRNA knockout: sgATF6, 1000 nM	95.8 ± 3.5
sgRNA knockout: sgATF6, 10000 nM	4.8 ± 3.8
sgRNA knockout: sgATG7, 10 nM	82.9 ± 23
sgRNA knockout: sgATG7, 100 nM	105 ± 9.8
sgRNA knockout: sgATG7, 1000 nM	75.1 ± 22
sgRNA knockout: sgATG7, 10000 nM	4.07 ± 3.4
sgRNA knockout: sgERN1, 10 nM	86.8 ± 18
sgRNA knockout: sgERN1, 100 nM	97.6 ± 15
sgRNA knockout: sgERN1, 1000 nM	102 ± 16
sgRNA knockout: sgERN1, 10000 nM	6.09 ± 4.3
sgRNA knockout: sgHSF1, 10 nM	97.6 ± 20
sgRNA knockout: sgHSF1, 100 nM	114 ± 17
sgRNA knockout: sgHSF1, 1000 nM	89.4 ± 10
sgRNA knockout: sgHSF1, 10000 nM	3.64 ± 0.76
sgRNA knockout: sgHSF2, 10 nM	95.25 ± 0.5
sgRNA knockout: sgHSF2, 100 nM	97.7 ± 15
sgRNA knockout: sgHSF2, 1000 nM	72.5 ± 8.1
sgRNA knockout: sgHSF2, 10000 nM	4.13 ± 3.1
sgRNA knockout: sgKEAP1, 10 nM	105 ± 8.4
sgRNA knockout: sgKEAP1, 100 nM	82.3 ± 16
sgRNA knockout: sgKEAP1, 1000 nM	80.9 ± 16
sgRNA knockout: sgKEAP1, 10000 nM	3.76 ± 1.6
sgRNA knockout: sgNFE2L2, 10 nM	107 ± 14
sgRNA knockout: sgNFE2L2, 100 nM	95.8 ± 20
sgRNA knockout: sgNFE2L2, 1000 nM	90.6 ± 6.9
sgRNA knockout: sgNFE2L2, 10000 nM	4.97 ± 4.4
sgRNA knockout: sgSLC35F2, 10 nM	84.1 ± 7.2
sgRNA knockout: sgSLC35F2, 100 nM	91.8 ± 10
sgRNA knockout: sgSLC35F2, 1000 nM	77.3 ± 4.6
sgRNA knockout: sgSLC35F2, 10000 nM	2.52 ± 1.9
sgRNA knockout: sgXBP1, 10 nM	92.9 ± 11
sgRNA knockout: sgXBP1, 100 nM	109.1 ± 0.64
sgRNA knockout: sgXBP1, 1000 nM	97.7 ± 9.9
sgRNA knockout: sgXBP1, 10000 nM	2.61 ± 1.7
